The values that follow come from PubChem BioAssay AID493014 (National Center for Advancing Translational Sciences (NCATS), 2011).

A short description of this experiment: qHTS Assay to Find Inhibitors of Chronic Active B-Cell Receptor Signaling. To be noted: ABC-DLBCL IkBa-CBG/CBR reporter, luminescence ratio (green luciferase fused to IkBa over red control in TMD8 lymphoma cells), 4 h. In a few lines: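 Doxycycline induced both beetle luciferases in TMD8 lymphoma cells; IKK-driven degradation limits the IkappaBalpha-fused green signal, while red luminescence normalises for cell number and nonspecific effects. Compounds tested up to 46 uM, 4 hrs.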
In general terms: Quantitative high-throughput screening tests each substance at several concentrations.

[1] abbreviates: measured here: CBR red luminescence, cell number.
[2] abbreviates: measured here: IkBa-CBG green luminescence.

This is one part of the list. Further columns of the screen follow, without active or inactive calls. The list favours compounds with an active or inconclusive main result. Potencies come from curve fits of mixed quality, noted in brackets.

Regarding `NCC(CC(=O)O)C1CCCCC1` (stereo not given), under setting [1], the AC50 is 23.1 µM [rising, partial curve, poor fit]. Take `CCC(C)Nc1cc(C)c(C#N)c2nc3ccccc3n12` (stereo not given): the AC50 under setting [1] was 11.2 µM [falling, single point]. Turning to `COc1ccc(CCn2c(O)c(C=NCCCN(C)C)c(=O)[nH]c2=O)cc1OC`, the AC50 under setting [1] was 29.1 µM [rising, single point]. For `CCCCn1c(NC(=O)c2ccc(Br)o2)c(C(=O)OCC)c2nc3ccccc3nc21`, the AC50 under setting [1] is 6.51 µM [falling, partial curve, poor fit]. As for `CC(C)(C)c1nc(NCc2ccc3c(c2)OCO3)c2nnn(Cc3ccccc3Cl)c2n1`, the AC50 under setting [1] was 2.59 µM [rising, full curve, poor fit]. On to `Cc1ccc(-c2nc3ccccc3c(=O)n2-c2cccc(C)n2)cc1`, for which the AC50 under setting [2] is 4.47 µM [rising, partial curve, poor fit].

`COc1ccc(-c2nc3ccccc3c(=O)n2-c2ccc(OC)cc2)cc1`: under setting [1], the AC50 is 0.1 µM [rising, full curve, poor fit].

For the molecule `O=c1[nH]c(=O)n(-c2cccc3ccccc23)c(O)c1C=NCCCn1ccnc1`, the AC50 under setting [1] was 11.6 µM [falling, single point]. `Cn1c(NN=O)nc2ccccc21`: under setting [1], the AC50 is 35.5 µM [falling, single point].

With `O=C(c1cc(S(=O)(=O)N2CCCCC2)ccc1F)N1CCC2(CC1)OCCO2`, the AC50 under setting [1] is 29.1 µM [falling, single point]. Regarding `C=CCc1ccc(OC(=O)NC2CCCCC2)c(OC)c1`, the AC50 under setting [1] was 35.5 µM [rising, single point]. Same read-out and setting: the figure for `CN(C)CCN=Cc1c(O)n(-c2cccc3ccccc23)c(=O)[nH]c1=O` is 0.651 µM [rising, partial curve, poor fit]; for `NP(=O)(Oc1ccc(Cl)cc1)Oc1ccc(Cl)cc1` it is 8.91 µM [falling, partial curve, poor fit].

Take `CCCCC[C@H](O)/C=C/[C@@H]1[C@@H](C/C=C\CCCC(=O)O)[C@H]2CO[C@@H]1C2`: under setting [1], the AC50 was 3.16 µM [rising, full curve]. With `O=C1NC(=O)C(=Cc2ccccc2OCCOc2ccc([N+](=O)[O-])cc2)C(=O)N1`, the AC50 under setting [1] is 12.6 µM [rising, single point]. As for `CC(N)Cc1c[nH]c2cc3c(cc12)OCCO3` (stereo not given), the AC50 under setting [1] is 6.51 µM [rising, single point]. On the same count and under the same terms, in the case of `O=c1c2ccccc2ccc2ccc(P(=O)(O)O)cc12` it was 0.731 µM [rising, full curve, poor fit]; in that of `COc1ccc2c3c1OC1C(=O)CC[C@@]4(O)[C@@H](C2)N(C)CC[C@]314` (stereo not given in full), 16.4 µM [falling, partial curve, poor fit]; in that of `COC(=O)C1=C(c2ccc(F)cc2F)C[C@@H]2CC[C@H]1N2C(=O)NCCO`, 20.6 µM [rising, single point].

Regarding `CCCC[C@@H](C)C[C@@H](C)C(=O)N(C)[C@@H](CC(C)C)C(=O)N[C@H](C(=O)N(C)[C@H](C(=O)N1C[C@@H](O)C[C@H]1C(=O)N1C(=O)C=C[C@@H]1C)C(C)C)C(C)OC(C)=O` (stereo not given in full), the AC50 by setting is: under setting [1], 29.1 µM [falling, single point]; under setting [2], 0.00517 µM [falling, full curve, poor fit]. With `NC(=O)OCCSc1nnc(-c2cccc(C(N)=S)c2)o1`, the AC50 under setting [1] was 20.6 µM [rising, partial curve, poor fit].

With `CC1(C)Cc2c(C#N)c(N3CCNCC3)nc(-c3ccco3)c2CS1`, under setting [1], the AC50 was 3.55 µM [falling, full curve, poor fit].

Regarding `OC12ONC(c3ccccn3)C1N1CCC2CC1` (stereo not given), under setting [1], the AC50 was 18.4 µM [falling, single point]. Regarding `O=C1NC(=O)N(c2ccccc2)C(=O)/C1=C\c1ccc([N+](=O)[O-])o1`, under setting [1], the concentration at half-maximal activity (AC50) was 3.98 µM [rising, single point].

In the case of `CCC(COC(=O)c1cc(OC)c(OC)c(OC)c1)(c1ccccc1)N(C)C` (stereo not given), the AC50 under setting [1] is 11.2 µM [rising, partial curve, poor fit]. As to `O=C1CN=C(c2ccc(Cl)cc2)c2oc3ccccc3c2N1`, under setting [1], the AC50 is 31.6 µM [rising, single point]. The same measure, in the same setting: in the case of `Cn1cc(C(=O)Cc2ccccc2)c2ccccc21` it was 2.31 µM [rising, full curve, poor fit]; in that of `COc1ccc(Cl)cc1C(=O)C1CCCN(Cc2cnc(C)s2)C1` (stereo not given), 1.78 µM [rising, partial curve, poor fit]. Regarding `COc1cccc(N=Cc2c(O)n(Cc3ccco3)c(=O)[nH]c2=O)c1`, under setting [1], the AC50 is 35.5 µM [falling, single point]. On the same count and under the same terms, the figure for `Cc1cccc(-n2c(C)nc3cc(C(=O)N4CCOCC4)ccc32)c1` is 15.8 µM [rising, partial curve, poor fit].

As to `CN(C)C1C(=O)C(C(N)=O)=C(O)C2(O)C(=O)C3=C(O)c4c(O)cccc4C(C)(O)C3C(O)C12` (stereo not given), the AC50 under setting [1] was 14.1 µM [rising, partial curve, poor fit]. Turning to `Cc1ccc(C2SCC(=O)Nc3c2c(=O)[nH]n3C2CCOC(C)(C)C2)cc1` (stereo not given), the AC50 under setting [1] was 23.1 µM [rising, single point]. Same read-out and setting: the figure for `COc1ccc2c(c1)/C(=C/c1cnc[nH]1)C(=O)N2` is 35.5 µM [falling, single point]; for `CN1CCN(CC(=O)Nc2nc(-c3c[nH]c4ccccc34)cs2)CC1` it is 10 µM [falling, partial curve].

For the molecule `CCSc1nnc([C@@H](N)Cc2ccccc2)o1`, the AC50 under setting [1] is 6.51 µM [rising, single point].

Turning to `COc1ccc2c(c1)[nH]c1c(C)nccc12`, under setting [1], the AC50 is 9.2 µM [falling, partial curve]. As for `CCCCn1c(N)c(C(=O)NCc2cccs2)c2nc3ccccc3nc21`, the AC50 under setting [1] is 7.94 µM [falling, partial curve]. Same read-out and setting: the figure for `O=C(C(Cc1ccccc1)NS(=O)(=O)c1ccc(F)cc1)N1CCC2(CC1)OCCO2` (stereo not given) is 2.06 µM [falling, full curve, poor fit]. Take `C/C(=N\NC(=O)CNc1cccc(C(F)(F)F)c1)c1cccs1`: the AC50 under setting [1] is 17.8 µM [rising, partial curve, poor fit]. `CC(C)c1oc(=O)cc2c1[C@@H](O)[C@H]1OC(=O)[C@@]3(C)C[C@@H](O)[C@@H](O)[C@@]2(C)C13` (stereo not given in full): under setting [1], the AC50 was 20.6 µM [falling, partial curve]. As to `Nc1c(C(=O)NCc2ccco2)c2nc3ccccc3nc2n1Cc1ccc(F)cc1`, under setting [1], the AC50 is 8.2 µM [falling, partial curve, poor fit]. In the case of `CNC(=O)Oc1ccc(-c2cn3cc(C)ccc3n2)cc1`, the AC50 under setting [1] is 18.4 µM [falling, partial curve].

Turning to `CC(C)n1c(=O)c(C=Nc2ccc(S(N)(=O)=O)cc2)c(O)n(Cc2ccco2)c1=O`, the AC50 under setting [1] is 16.4 µM [falling, single point].

With `CCN(CC)C(=O)c1ccc(NC(=O)CCCSc2ccccc2)cc1`, under setting [1], the AC50 was 5.01 µM [rising, partial curve, poor fit]. As for `COC(=O)C1=C(c2ccc(F)cc2OCc2ccccc2)C[C@@H]2CC[C@H]1N2C(=O)NCc1ccccc1Cl`, the AC50 under setting [1] was 16.4 µM [falling, single point]. As to `Brc1ccc(CN2CCNCC2)s1`, the AC50 under setting [1] is 13 µM [rising, partial curve, poor fit]. With `CCCCn1c(=O)c(C(=O)NCc2ccncc2)c(O)c2ccccc21`, under setting [1], the AC50 is 12.6 µM [falling, single point]. For the molecule `Cc1nc2c(=O)n(C)c(=O)nc-2n(C)n1`, the AC50 runs as follows: under setting [1], 2.06 µM [falling, full curve]; under setting [2], 7.31 µM [rising, partial curve, poor fit]. Take `CN1C(=O)c2ccccc2NC(=O)[C@]12O[C@@H]2c1ccccc1`: the AC50 under setting [1] was 35.5 µM [rising, single point]. Turning to `CCn1cc(CN2CCCC(C(=O)c3sccc3C)C2)cn1` (stereo not given), the AC50 under setting [1] was 0.0891 µM [rising, full curve, poor fit]. On to `CC1CN=C(NCc2ccccc2Cl)S1` (stereo not given), for which, under setting [1], the AC50 was 14.1 µM [falling, single point]. As to `COc1ccc2[nH]c(C)c(CCNCc3cn(C)c4ccccc34)c2c1`, the AC50 under setting [1] was 23.1 µM [falling, partial curve, poor fit].

For the molecule `COc1ccc2c(c1)c(C(=O)O)c(C)n2C(C)C`, under setting [1], the AC50 was 8.2 µM [rising, partial curve]. In the case of `Cc1ccc(CN2CC3CC(C2)c2cccc(=O)n2C3)cc1` (stereo not given), the AC50 under setting [1] was 9.2 µM [falling, partial curve, poor fit]. `Cc1ccc(N2C(=O)NC(=O)/C(=C\c3cnc(-c4ccccc4)nc3)C2=O)cc1`: the AC50 under setting [1] is 0.92 µM [rising, partial curve]. Take `O=C1NC(=S)NC(=O)C1=Cc1cccn1-c1ccc(O)cc1`: the AC50 reads like this: under setting [1], 22.4 µM [rising, partial curve]; under setting [2], 35.5 µM [falling, single point]. As for `O=C(c1cc(C(=O)NCc2ccccc2)c(=O)n(Cc2ccccc2)c1)c1cc(Br)ccc1O`, the AC50 under setting [1] was 0.164 µM [rising, full curve, poor fit].

In the case of `COc1ccc(CN2CCCC(C(=O)c3sccc3C)C2)cc1O` (stereo not given), the AC50 under setting [1] was 35.5 µM [rising, single point]. In the case of `CCc1ccccc1OCC(=O)Nc1nc(-c2cccnc2)cs1`, under setting [1], the AC50 was 35.5 µM [rising, single point]. `O=C(COc1ccc2ccc(=O)oc2c1)N1CCC(C(=O)O)(c2ccccc2)CC1`: under setting [1], the concentration at half-maximal activity (AC50) was 35.5 µM [falling, single point]. For `CCN(CC)CCCN=Cc1c(O)n(Cc2ccc(F)cc2)c(=O)[nH]c1=O`, the AC50 under setting [1] is 0.251 µM [rising, full curve, poor fit]. Same read-out and setting: in the case of `C=C(c1ccccc1)P(=O)(O)O` it was 29.1 µM [rising, single point].

As usually defined, the AC50 is the midpoint of the concentration-response curve, whichever way the signal moves.
